According to EP0525836B1, “Assay method using novel NAD synthetase” (priority 1986, dated 1988):
The name of at least one read-out is uncertain.

Target: T1, NAD synthetase (Geobacillus stearothermophilus ATCC 12980, UniProt A0ACH1E6M2)
T1 sequence (A0ACH1E6M2 1-246): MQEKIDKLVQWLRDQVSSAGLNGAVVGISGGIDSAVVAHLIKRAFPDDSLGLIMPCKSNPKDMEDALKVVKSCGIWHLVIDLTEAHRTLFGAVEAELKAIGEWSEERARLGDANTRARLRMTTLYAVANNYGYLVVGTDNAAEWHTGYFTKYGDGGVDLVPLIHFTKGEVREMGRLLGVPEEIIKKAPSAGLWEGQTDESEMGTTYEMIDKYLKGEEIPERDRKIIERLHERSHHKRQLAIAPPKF
Assay type: biochemical, Bacillus stearothermophilus H-804
Settings: MgCℓ2 ( 5 mM ) replaced by MnCℓ2 ( 3 mM ); compared with MgCℓ2 ( 5mM ); 10 min
Description: In the enzyme activity assay, each metallic ion ( 5 mM ), EDTA ( 20 mM ) or each surface active agent ( 0.1 % ) in Table 1 is added separately to the reaction medium I, and the enzyme activity is measured. […]
• 50 mM Tris-HC ℓ buffer pH 8.0 • 1 mM K C ℓ • 5 mM MgC ℓ 2 • 0.05 % bovine serum albumin • 2 mM ATP • 0.5 mM deamide-NAD • 25 mM ( NH4 )2 SO4
• 50 mM Tris-HCℓ buffer pH 8.0 • 10 U diaphorase ( Toyo Jozo Co. from genus Bacillus) • 3 % ethanol • 10 U alcohol dehydrogenase/m ℓ ( Toyo Jozo, yeast ) • 0.025 % NTB ( nitrotetrazolium blue ) • 0.1 % Triton X-100 • 10 mM EDTA
Reaction medium I ( 0.3 mℓ ) in a test tube is pre-incubated at 37 °C, and the enzyme solution ( 5 µ ℓ ) is added thereto. The mixture is then incubated at 37 °C for exactly 10 minutes.
Reaction medium II ( 0.8 mℓ ) is added thereto to stop the reaction and simultaneously to start the cycling reaction at 37°C for exactly 5 minutes. After stopping the cycling reaction by adding 0.1 N-HC ℓ( 2.0 mℓ) , the absorbency at 550 nm is measured to calculate the enzyme activity. The enzyme activity is calculated by the following equation : NAD synthetase activity ( mU/ m ℓ ) = (ΔA550)/(ΔS550)x(1.0)/(0.005)x(f)/(10) [formula] wherein ΔA: absorbency of specimen, ΔS: absorbency of standard solution ( 0.1 mM NAD ), 0.005: specimen volume ( mℓ ) 10 : reaction time, f : dilution ration.

With MnCℓ2 the “Activity of the enzyme” value was 150%.
